Data: US20060009380A1
Results are given in words; binding and its absence hold for the method and conditions named. Some results given as binding are weak or reduced against the parent protein; the word gives no strength.

Amino acid sequences for entries named in this document (tags omitted). A change or cut given only in a name is not applied to a line headed by its entry. Residues count along the entry.
UniProt P47929: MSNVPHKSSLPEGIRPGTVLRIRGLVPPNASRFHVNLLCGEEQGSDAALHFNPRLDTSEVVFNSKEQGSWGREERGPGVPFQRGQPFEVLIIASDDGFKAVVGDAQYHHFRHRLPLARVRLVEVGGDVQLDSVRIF
UniProt P04792: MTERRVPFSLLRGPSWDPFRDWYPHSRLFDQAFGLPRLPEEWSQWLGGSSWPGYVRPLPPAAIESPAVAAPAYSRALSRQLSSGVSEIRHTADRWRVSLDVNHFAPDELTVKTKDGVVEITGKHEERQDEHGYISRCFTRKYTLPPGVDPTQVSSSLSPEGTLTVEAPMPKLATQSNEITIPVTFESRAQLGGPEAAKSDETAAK
UniProt P07355, residues 2-339: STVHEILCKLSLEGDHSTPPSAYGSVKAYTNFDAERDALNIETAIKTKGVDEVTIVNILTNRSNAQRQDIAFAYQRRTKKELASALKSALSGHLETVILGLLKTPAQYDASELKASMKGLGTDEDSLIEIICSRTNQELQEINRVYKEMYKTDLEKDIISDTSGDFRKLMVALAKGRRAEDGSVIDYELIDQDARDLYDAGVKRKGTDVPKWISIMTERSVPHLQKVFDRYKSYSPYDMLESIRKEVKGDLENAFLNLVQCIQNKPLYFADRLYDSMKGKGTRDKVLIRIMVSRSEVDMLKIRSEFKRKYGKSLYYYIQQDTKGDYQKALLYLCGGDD
UniProt P49862, residues 30-253: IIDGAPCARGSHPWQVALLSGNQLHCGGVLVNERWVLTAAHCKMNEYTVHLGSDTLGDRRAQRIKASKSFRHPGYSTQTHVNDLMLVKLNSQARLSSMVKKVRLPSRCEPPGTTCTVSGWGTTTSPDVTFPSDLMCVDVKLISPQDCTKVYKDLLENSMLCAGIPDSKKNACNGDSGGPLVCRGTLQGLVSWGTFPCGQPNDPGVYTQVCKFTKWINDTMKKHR
UniProt Q9NZT1: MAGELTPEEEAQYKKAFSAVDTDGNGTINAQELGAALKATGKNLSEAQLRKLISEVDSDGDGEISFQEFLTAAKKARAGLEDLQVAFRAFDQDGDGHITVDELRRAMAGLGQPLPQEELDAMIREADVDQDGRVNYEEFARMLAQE

Columns and labels:
Assay in all cases: other experiments, method not described
galectin 7 = galectin 7 (UniProt P47929)
Heat Shock P 27 = Heat Shock P 27 (UniProt P04792)
MRP14 or calgranulin B = biological target: T1, MRP14 or calgranulin B (UniProt P06702)
T1 sequence (looked up): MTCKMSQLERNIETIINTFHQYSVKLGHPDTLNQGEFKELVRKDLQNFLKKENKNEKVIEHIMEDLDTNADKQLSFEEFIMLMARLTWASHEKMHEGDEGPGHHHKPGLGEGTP

annexin 2 = annexin 2 (UniProt P07355)
SCCE = SCCE (UniProt P49862)

Measured: binding

CLSP (calmodulin-like skin protein), the polypeptide of the invention (from UniProt Q9NZT1 2-146)
binds: all assays above
